Laboratory results from patent US20100167274.
For some assays here: The comparison behind a weaker result is the experiment's own reference, which may not be listed here. For some assays here: The exact form of at least one protein or probe is not confirmed.

The chains behind the UniProt entries cited, without tags or fusion partners. Where a name states a change or a piece, a line headed by the entry shows the natural chain unless it says otherwise.
UniProt P0A7G6: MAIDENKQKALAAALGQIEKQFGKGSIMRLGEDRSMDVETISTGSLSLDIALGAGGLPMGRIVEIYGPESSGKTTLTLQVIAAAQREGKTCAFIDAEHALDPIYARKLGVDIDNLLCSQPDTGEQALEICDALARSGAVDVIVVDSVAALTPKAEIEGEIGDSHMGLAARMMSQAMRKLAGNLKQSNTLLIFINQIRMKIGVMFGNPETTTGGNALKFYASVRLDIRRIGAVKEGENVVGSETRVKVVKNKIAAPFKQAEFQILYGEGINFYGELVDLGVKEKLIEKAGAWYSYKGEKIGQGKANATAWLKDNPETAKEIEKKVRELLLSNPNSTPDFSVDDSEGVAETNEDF

Key:
RecA [1] = target: RecA (UniProt P0A7G6); experiment: binding assay; details: RecA polymerizes on overhang; exchange with non-denatured target duplex SEQ 31/32; reduced by target SNPs at positions 6 and beyond; purified recombinant protein; protein details: New England Biolabs; label: Cy5 5' on SEQ 29, TAMRA 3' on SEQ 30
RecA [2] = target: RecA (UniProt P0A7G6); experiment: activity assay; details: FRET strand exchange; large reduction over whole RecA range; 2 mM ATP; purified recombinant protein; protein details: New England Biolabs; single-stranded DNA; variant of ssDNA invader, full homology (FIG. 2a-b)

Row | Sequence | binding result (RecA [1]) | activity on this sequence (RecA [2])
1 | TAGACATCTCCTGTTCGTTGCAACAAATTGATAAGCAATGCTTTTTTATAATGCATGCAAGTGAAACCT / CGAATTCAATTTGTTGCAACGAACAGGTCTA [labeled probe 69-mer/31-mer with full homology target duplex] | binds | –
2 | TAGACCTGTTGGTTGCAACAAATTCATAAGCAATGGTTTTTTATAATGCAGTGAA [ssDNA invader, three mismatches] | – | less active
